Reference: US20120177693A1, “DEEP LUNG PULMONARY DELIVERY OF TREPROSTINIL” (Aradigm Corporation, priority 2008, published 2012)

Assay: Gamma scintigraphy of 99mTc-DTPA radiolabeled treprostinil sodium inhaled via AERx Essence System or Nebu-Tec Optineb nebulizer, two-way crossover, 14 healthy male subjects
Format: in vivo, human
Details: for % loaded dose in mouthpiece, AERx − Nebu-Tec Difference (95% C.I.): difference of LSmeans, monosodium salt; for % loaded dose in mouthpiece: LSmeans
Source text: This was an open label study conducted in a single-center, using a randomized, two-way crossover design. Sixteen healthy adult male subjects were to be enrolled to receive study treatments. Upon provision of written informed consent, each study candidate underwent a pre-study evaluation and screening to determine eligibility to participate.
On each of two dosing days, eligible subjects underwent dosing with ^99mTc-labeled treprostinil sodium using either the AERx Essence System or the Nebu-Tec Optineb nebulizer. Following their initial study dose, subjects underwent a washout period of approximately 48 hours before completing a second (crossover) study dose.
Immediately following each study dose, subjects underwent gamma scintigraphy and multiple samplings of venous blood to characterize treprostinil lung deposition and plasma pharmacokinetics.
Subjects also underwent a Krypton-81m (^81mKr) gas ventilation imaging procedure. This procedure could have been performed on any dosing day followed by a 30 minute washout before any of the aerosol dosing procedures, if there were logistical/scheduling problems, ventilation imaging could have been done after dosing. Alternatively the ^81mKr ventilation scan could have been performed on a separate visit. Additionally transmission images were also acquired this could have been performed on any dosing day prior to any of the aerosol dosing procedures or on a separate visit
A single “bulk” treprostinil sodium formulation (600 μg/mL) was used for both the Nebu-Tec Optineb nebulizer and the AERx Essence. The bulk drug solutions were diluted by the addition of ^99mTc-DTPA (2000 MBq/mL) at a ratio of 19:1, i.e. 0.05 mL of ^99mTc-DTPA was added to 0.950 mL of bulk drug solution. Each mL of the radiolabeled drug solutions therefore contained 100 MBq of ^99mTc-DTPA and 570 μg of treprostinil. The radiolabel ^99mTc as ^99mTc-DTPA was acquired from an approved supplier (i.e., the Medical Physics Department, University Hospital of Wales, Heath, Cardiff [Manufacturers License Number: MS/IMP18523]).
In this study, the radiolabel marker (^99mTc-DTPA) deposition profiles obtained following administration of a radiolabeled treprostinil sodium formulation will be evaluated using gamma to assess the performance for the two delivery systems. Gamma scintigraphy offers a precise and accurate method of evaluating the deposition of an inhaled radiolabeled aerosol in the oropharynx and lung.
To compare the emitted dose, delivered lung dose, and the central-to-peripheral (sC/P) lung deposition of radiolabeled treprostinil sodium delivered via the AERx Essence System versus the Nebu-Tec Optineb nebulizer using gamma scintigraphy.
In addition the following secondary efficacy variables were determined, the dose (μg) of treprostinil deposited in the lung, the percent dose (emitted and loaded) of radiolabeled treprostinil sodium in the oropharyngeal region from both devices, the percent loaded dose remaining in both devices and associated equipment e.g. mouthpiece.
Scintigraphic data were used to determine the fraction of the loaded dose delivered to the lung which was subsequently utilised to estimate the lung dose in terms of μg of Treprostinil. For AERx, the calculation of lung dose was derived by normalising the emitted dose to lung for the fraction (%) of the loaded dose retained post-administration i.e. within the device and dosage forms. The actual dose within the AERx strips (a single dose consisted of two strips) was calculated from the nominal treprostinil concentration adjusted for the actual concentration determined by HPLC assay of the stock radiolabeled drug solutions on each dosing day (see Table 14.2.1.5).
The Optineb device contained a drug reservoir (nebuliser cup) from which each dose (six separate puffs) was metered. To determine the dose available to the subject an in vitro test to collect a single emitted dose (ED) was performed for each device following subject dosing.

CCCCC[C@H](O)CC[C@@H]1[C@H]2Cc3cccc(OCC(=O)[O-])c3C[C@H]2C[C@H]1O.[Na+] [treprostinil, (1R,2R,3aS,9aS)-[[2,3,3a,4,9,9a-Hexahydro-2-hydroxyl-1-[(3S)-3-hydroxyoctyl]-1H-benz[f]inden-5-yl]oxy]acetic acid monosodium salt]
% loaded dose in mouthpiece, AERx − Nebu-Tec Difference (95% C.I.) (listed as Treprostinil): −4.84 (−9.92-0.23) % | % loaded dose in mouthpiece, AERx − Nebu-Tec Difference (95% C.I.): −4.84% | Calculated ED (via AERx, two strips, Mean): 28.32 µg | % loaded dose in mouthpiece (via AERx): 2.35% | AERx Post Dose (via AERx, Max): 50.10 % LD | Calculated ED (via AERx, Max): 32.90 µg | DF Post-dose (via AERx, Max): 22.93 % LD | Mass balance (via AERx, Max): 105.91% | Mouth-piece (via AERx, Max): 4.41 % LD | Total dose retained (via AERx, Max): 72.74 % LD | AERx Post Dose (retained in device, corrected for attenuation) (via AERx, Mean): 30.04 % LD | DF Post-dose (dosage forms) (via AERx, Mean): 20.87 % LD | Mass balance (total radioactivity recovered) (via AERx, Mean): 99.76% | Mouth-piece (via AERx, Mean): 2.35 % LD | Total dose retained (via AERx, Mean): 53.25 % LD | AERx Post Dose (via AERx, Min): 24.64 % LD | Calculated ED (via AERx, Min): 16.40 µg | DF Post-dose (via AERx, Min): 17.98 % LD | Mass balance (via AERx, Min): 91.99% | Mouth-piece (via AERx, Min): 0.72 % LD | Total dose retained (via AERx, Min): 45.76 % LD | % loaded dose in mouthpiece (via Nebu-Tec): 7.19% | Mass balance (via Optineb, Max): 122.33% | Mouth-piece (MP) (via Optineb, Max): 36.09 % ND | Mass balance (total radioactivity recovered) (via Optineb, Mean): 89.37% | Mouth-piece (MP) (via Optineb, Mean, % of nebulised dose): 7.19 % ND | Mass balance (via Optineb, Min): 70.47% | Mouth-piece (MP) (via Optineb, Min): 1.60 % ND
